Assay results taken from publication PMC6370633.
These are yes or no findings as the source states them, for the method shown.

Sequences of proteins named here, by UniProt entry; tags and fusion partners are left off. Residues count along the entry.
UniProt P69996, residues 2-569: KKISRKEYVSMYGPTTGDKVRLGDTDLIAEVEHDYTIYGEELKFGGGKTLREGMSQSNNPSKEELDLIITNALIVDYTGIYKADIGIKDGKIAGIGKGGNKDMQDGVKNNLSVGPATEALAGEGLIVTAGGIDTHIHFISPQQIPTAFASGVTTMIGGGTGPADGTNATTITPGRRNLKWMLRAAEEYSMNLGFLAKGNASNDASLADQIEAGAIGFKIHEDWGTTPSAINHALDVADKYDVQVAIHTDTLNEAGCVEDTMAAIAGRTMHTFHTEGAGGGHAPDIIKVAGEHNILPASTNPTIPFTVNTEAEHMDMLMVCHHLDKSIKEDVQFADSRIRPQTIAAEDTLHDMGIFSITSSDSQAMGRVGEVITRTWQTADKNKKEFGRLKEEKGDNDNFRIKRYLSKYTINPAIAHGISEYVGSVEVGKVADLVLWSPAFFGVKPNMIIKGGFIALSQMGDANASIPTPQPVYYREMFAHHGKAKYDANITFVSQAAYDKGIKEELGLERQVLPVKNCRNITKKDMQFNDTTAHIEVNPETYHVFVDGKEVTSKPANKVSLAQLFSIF
UniProt P42383: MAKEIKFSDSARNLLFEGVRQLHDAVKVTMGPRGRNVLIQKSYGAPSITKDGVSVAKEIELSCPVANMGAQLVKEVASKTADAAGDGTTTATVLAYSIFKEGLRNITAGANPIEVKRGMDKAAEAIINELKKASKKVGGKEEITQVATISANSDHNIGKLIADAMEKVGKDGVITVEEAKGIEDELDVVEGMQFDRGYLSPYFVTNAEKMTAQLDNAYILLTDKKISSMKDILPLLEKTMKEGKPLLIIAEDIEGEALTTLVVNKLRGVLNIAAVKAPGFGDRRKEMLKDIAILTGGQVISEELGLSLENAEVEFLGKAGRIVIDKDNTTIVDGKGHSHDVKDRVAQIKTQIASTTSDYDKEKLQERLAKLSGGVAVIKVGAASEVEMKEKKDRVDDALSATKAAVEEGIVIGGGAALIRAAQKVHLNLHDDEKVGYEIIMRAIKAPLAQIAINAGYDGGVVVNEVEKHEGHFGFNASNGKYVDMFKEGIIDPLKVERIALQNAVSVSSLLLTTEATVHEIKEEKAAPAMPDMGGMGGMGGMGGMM

Molecular target: GST-UreB (UreB fused with GST tag on its N-terminus) (Helicobacter pylori 26695) (UniProt P69996)
Test: pull-down; GST-fused proteins on glutathione Sepharose 4B beads (20 μl), incubated with 0.4 ml purified Hsp60 (1 mg/ml in 50 mM Tris-HCl, pH 8.0) at 4°C for 2 h; washed four times; Western blot (anti-His) and SDS-PAGE; both purified

With “Helicobacter pylori Hsp60 with a 6 × His tag on its C terminus (from UniProt P42383 1-546)” the binding was “no binding (tested: 1 mg/ml Hsp60)”.
